Where two headings read alike, the source gives them in different places.
Assays:
[1] = in vivo; settings: Balb/c, mouse, po, 10 mg/kg
[2] = Balb/c, mouse, in vivo
[3] = in vivo; settings: Balb/c, mouse, iv, 4 mg/kg
[4] = in vitro; settings: Balb/c, mouse, plasma
[5] = mouse, in vivo

half-life [1]: 1.8 h | AUC(0-t) ([1]; AUC0-360): 512 ng·h/mL | Administered drug recovered unaltered in urine [2]: < 0.1% | Half-life of PO treated mice greater than IV half-life [2]: 50-100% | Lung and kidney partitioning, PO treated groups higher than IV group [2]: approximately 50% | 0-24h feces ([2]; iv, 4 mg/kg): 1.04 % dose | 0-24h urine ([2]; iv, 4 mg/kg): 0.102 % dose | 0-24h feces ([2]; po, 1 mg/kg): 1.91 % dose | 0-24h urine ([2]; po, 1 mg/kg): 0.0238 % dose | Vd ([2]; po, 1 mg/kg): 122 L/kg | 0-24h feces ([2]; po, 4 mg/kg): 2.45 % dose | 0-24h urine ([2]; po, 4 mg/kg): 0.0150 % dose | Vd ([2]; po, 4 mg/kg): 77.7 L/kg | 0-24h feces ([2]; po, 10 mg/kg): 1.82 % dose | 0-24h urine ([2]; po, 10 mg/kg): 0.0129 % dose | Vd ([2]; po, 10 mg/kg): 78.4 L/kg | 0-24h feces ([2]; po, 40 mg/kg): 5.20 % dose | 0-24h urine ([2]; po, 40 mg/kg): 0.0314 % dose | Vd ([2]; po, 40 mg/kg): 24.2 L/kg | Vd [3]: 7.31 L/kg | clearance [3]: 55.8 mL/min/kg | fraction unbound at 16 h, 50 ng/mL [4]: 0.166 | fraction unbound at 16 h, 5000 ng/mL [4]: 0.198 | Bone marrow partitioning compared to AZD6738 ([5]; Balb/c): approximately 50% | Brain and spinal cord partitioning higher than AZD6738 ([5]; Balb/c): ~ 10 fold | 0-24h feces ([5]; Balb/c, po, 10 mg/kg): 1.16 % dose | 0-24h urine ([5]; Balb/c, po, 10 mg/kg): 0.0192 % dose | Cl ([5]; Balb/c, po, 10 mg/kg): 278 mL/min/kg | Vd ([5]; Balb/c, po, 10 mg/kg): 43.2 L/kg | Draining lymph node partitioning compared to AZD6738 [5]: two-fold higher | Esophagus partitioning compared to AZD6738 [5]: four-fold higher
SMILES: C[C@@H]1COCCN1c1cc(-c2ccnn2C)c2ccnc(-c3ccn[nH]3)c2n1 [BAY-1895344]
